In paper PMC7075897 one finds binding data, which are given here for four molecules.

In experiment [1] the target is T1, EcR (isoform A) fused to APEX2 through a 25 nm GS linker, marked with 3xFLAG (Drosophila melanogaster) (UniProt P34021).
T1 sequence: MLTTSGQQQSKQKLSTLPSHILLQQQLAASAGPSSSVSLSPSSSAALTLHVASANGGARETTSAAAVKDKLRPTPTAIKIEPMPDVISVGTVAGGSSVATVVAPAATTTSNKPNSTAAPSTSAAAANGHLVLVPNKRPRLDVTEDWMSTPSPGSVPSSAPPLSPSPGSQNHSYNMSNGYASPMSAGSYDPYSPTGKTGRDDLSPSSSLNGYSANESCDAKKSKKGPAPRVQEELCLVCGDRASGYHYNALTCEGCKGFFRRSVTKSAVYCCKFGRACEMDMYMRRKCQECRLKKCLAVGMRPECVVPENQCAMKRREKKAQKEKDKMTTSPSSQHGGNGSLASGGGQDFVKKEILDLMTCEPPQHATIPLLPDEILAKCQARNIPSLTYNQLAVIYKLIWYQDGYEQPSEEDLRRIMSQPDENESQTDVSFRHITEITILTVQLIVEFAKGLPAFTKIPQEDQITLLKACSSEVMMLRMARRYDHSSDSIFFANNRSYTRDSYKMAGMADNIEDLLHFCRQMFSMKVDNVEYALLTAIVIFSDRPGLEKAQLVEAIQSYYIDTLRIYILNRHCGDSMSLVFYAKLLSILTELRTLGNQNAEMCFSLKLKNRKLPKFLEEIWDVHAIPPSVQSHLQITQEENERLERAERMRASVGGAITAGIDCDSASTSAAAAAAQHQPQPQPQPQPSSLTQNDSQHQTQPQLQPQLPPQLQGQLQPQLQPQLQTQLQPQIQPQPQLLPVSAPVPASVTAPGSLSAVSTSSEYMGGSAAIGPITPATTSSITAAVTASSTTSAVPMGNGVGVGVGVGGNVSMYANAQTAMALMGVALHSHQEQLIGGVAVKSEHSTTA
In words: proximity labelling; APEX2 fused to EcR or Usp, stably expressed in S2 cells; 20E or DMSO 1 h, biotin-phenol 30 min, 1 mM H2O2 5 min; nuclear extract, Streptavidin-Agarose precipitation, LC-MS/MS.

Experiment [2] has as its target T2, Usp fused to APEX2 through a 25 nm GS linker, marked with 3xFLAG (Drosophila melanogaster) (UniProt P20153).
T2 sequence: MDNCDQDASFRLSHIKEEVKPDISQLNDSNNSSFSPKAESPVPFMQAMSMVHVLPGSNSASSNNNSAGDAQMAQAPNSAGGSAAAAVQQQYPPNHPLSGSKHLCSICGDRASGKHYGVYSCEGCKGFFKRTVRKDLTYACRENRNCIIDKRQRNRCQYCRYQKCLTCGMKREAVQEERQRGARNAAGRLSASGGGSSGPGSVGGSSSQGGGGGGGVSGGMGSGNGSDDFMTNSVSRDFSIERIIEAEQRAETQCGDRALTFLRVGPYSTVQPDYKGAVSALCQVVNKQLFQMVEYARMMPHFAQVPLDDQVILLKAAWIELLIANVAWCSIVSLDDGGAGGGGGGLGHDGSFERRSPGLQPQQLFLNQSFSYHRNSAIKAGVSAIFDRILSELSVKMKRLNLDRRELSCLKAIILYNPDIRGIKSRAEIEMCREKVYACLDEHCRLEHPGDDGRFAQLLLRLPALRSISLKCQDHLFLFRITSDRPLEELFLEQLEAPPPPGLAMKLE
The description is as above.

No constants are given. Whether binding was seen depends on the method and setting. In cells and extracts the contact can be indirect. A yes stands for co-enrichment or nearness to the bait. Other partners may have been found. Sequences can lack the tags named with a protein.

B1: RanBPM (protein, UniProt Q4Z8K6 1-962)
chain: MENVEEAPPLSSESNSNSNNSSASSSSHQLSQSGAMGAEIAPSTSRSHSHSPTPSPPVPASSHDQPHPDHPSPPLNASETEARENSPHDHSPTPTFHQTAPPPTTSSTAPQRDEREQQQQQEAPPLQQDQQENSPAQDQELHPLLDQQNQEYPAVHQDQQAEQNQELHHIEGLIRHRESQNPEEHPPQASLENRETLGREDTNQEPDEPQVRDPEIEPEAEPPPPLLLEDLDEQDSGSQDLNEQQPPLIIDANAIAETIDANAVERIDDYEDDDEEVDEEEEVVEDRVDRAGEVASVSGAQRLHSVAVLPRYSSASRAPRSSNNNNNNISNHNNNNNNSNSNSLSRRTRHFYSNNGSHFSNDMFPSHNPRSSTQTSSPRVGGRRHHSTPAASSNSPQHQGVDPLRLLYPNVNESETPLPRCWSPHDKCLSIGLSQNNLRVTYKGVGKQHSDAASVRTAYPIPSSCGLYYFEVRIISKGRNGYMGIGLTAQQFRMNRLPGWDKQSYGYHGDDGNSFSSSGNGQTYGPTFTTGDVIGCCVNFVNNTCFYTKNGVDLGIAFRDLPTKLYPTVGLQTPGEEVDANFGQEPFKFDKIVDMMKEMRSNVLRKIDRYPHLLETPENLMNRLVSTYLVHNAFSKTAEAFNGYTNQTFNEDLASIKTRQKIIKLILTGKMSQAIEHTLRSFPGLLENNKNLWFALKCRQFIEMINGADIENVNNKVTATTQTMPTNQTSVIQSTKTFKHSKSGSGNGNVNINQTQQQNNTAIPAVIKPQGGDRPDIKNMLVDDNSNKCVEHDSNSMDVEMEPCQSHSNGGDSSSNGNASAVRNSLDAIDEEMDVDVSPSSRNCGRVIEKILEFGKELSSMGQQLEKENLMTEEERQMLEDAFSLIAYSNPWSSPLGWLLCPSRRESVSTTLNSAILESLNFERRPPLEYLVAHASELIKVIGQHSLGEDAFITIDDVFPQN
In the case of B1, the binding entry in experiment [1] and in experiment [2] was “binds” each time.

B2: SMC2 (protein, UniProt Q7KK96 1-1179)
chain: MYVKKLVLDGFKSYGRRTEIEGFDPEFTAITGLNGSGKSNILDSICFVLGISNLQNVRASALQDLVYKNGQAGITKATVTIVFDNTNPAQCPQGYEKCREISVTRQVVVGGKNKFLINGKLVQNKKVQDFFCSIQLNVNNPNFLIMQGKIQQVLNMKPKEVLSMVEEAAGTSQYKTKRDATKTLIEKKETKVRETKVLLDEEVLPKLVKLRQERSAYQEYQKICRDIDFLIRIHISAKYLKQCETLKTVEANEHKIEDRIANCKATHAKNLAEVESIENSVKEMQQQIDAEMGGSIKNLETQLSAKRALEATATGSLKAAQGTIQQDEKKIRMASKNIEDDERALAKKEADMAKVQGEFESLKEADARDSKAYEDAQKKLEAVSQGLSTNENGEASTLQEQLIVAKEQFSEAQTTIKTSEIELRHTRGVLKQREGETQTNDAAYVKDKKLHDQLVVEIKNLERQLQSLDYEGGHFEKLKQRRNDLHMRKRDLKRELDRCNASRYDLQYQDPEPNFDRRKVRGLVGKLFQVKDMQNSMALVQTAGGSLYSYVTDDDVTSKKILQRGNLQRRVTLIPINKIQSGSLNRNVVEYAQNKVGAENVQWAMSLIDYDRYYEPVMKFCFGGTLICKDLIVAKQISYDPRINCRSVTLEGDVVDPHGTVSGGAAPKGANVLEELHAIKQIEKEYREIDSEIAQVEKQIASIENQALAFNKMKENLDLRQHELTMCENRLAQTTFQQNQAEIEEMRERVKTLEQQIIDSREKQKTSQAKIVDIEAKLADAKGYRERELNAATNEIKVTKQRAEKSRANWKKREQEFETLQLEITELQKSIETAKKQHQEMIDNLEKFKAELDALKVNSSSAASEVTELEQAIKEQKDKLRDQNKEMRNQLVKKEKMLKENQEIELEVKKKENEQKKISSDAKEAKKRMEALEAKYPWIPEEKNCFGMKNTRYDYSKEDPHEAGNKLAKMQEKKDKMERTLNMNAIMVLDREEENFKETERRRNIVAMDKEKIKKIIVKMDEEEQDQLNKAATEVNTNFSGIFSSLLPGAEAKLNPVHTNGCLTGLEIKVGFNGIWKESLGELSGGQKSLVALSLVLAMLKFSPAPLYILDEVDAALDMSHTQNIGSMLKQHFTNSQFLIVSLKDGLFNHANVLFRTLFEEGVSTITRQVSRQATTNKR
With B2, the binding entry in experiment [1] and in experiment [2] was “binds” in each case.

B3: smid (protein, UniProt P91638 1-943)
chain: MKKAKPLLHDHLITIRVKKYLEEHIGETYLDVKQMTRELMQKYPEYSRRKFGPFRQLVHQAFSIISESYNLDKVSSSEEDCVSEDSEPPPTNSVMNNMMNSLYSQPRKPLAPKPISEPIDISSGDENEDDSNTKTTNGDGVAAAAAPPPPTPAVQGSALKRLMEEVPEIAVAAKKAKPNTIHVSSSEAIQKLHQVVGNRAKNLSEDAVPRSKDHRNVPGLYQQLHQNQSRDRLRKFKRDLEVQHPTESFRDIGGMDSTLKELCEMLIHIKSPEFYFQLGLLPSRGLLLHGPPGCGKTFLARAISGQLKMPLMEIPATELIGGISGESEERIREVFDQAIGYSPCVLFIDEIDAIGGNRQWASKDMERRIVSQLISSLDNLKANEFGQSVVVIAATTRPDVLDPGLRRIGRFDHEIAIHIPSRKERREILRIQCEGLSVDPKLNYDKIAELTPGYVGADLMALVSRAASVAVKRRSMKKFRELHAASEKNMTTVTLDDDEPSEDAGETPVPDSKGEETAKDAEAEQKVDGDKETSAKDKSEGDSPNIETPKKATNGNSSIKSPQKTPKKSAEKPTDAAMDVDNVAPEEPKKAVEQEVDSSSSNDEYYEPTLAELTNFLDNPPEEFADPNFCLTLIDFVDAIKVMQPSAKREGFITVPDTTWDDIGALEKIREELKLAVLAPVKYPEMLERLGLTAPSGVLLCGPPGCGKTLLAKAIANEAGINFISVKGPELMNMYVGESERAVRACFQRARNSAPCVIFFDEFDSLCPKRSDGGDGNNSGTRIVNQLLTEMDGVEERKGVYILAATNRPDIIDPAILRPGRLDTILYVGFPEQSERTEILKATTKNGKRPVLADDVDLDEIAAQTEGYTGADLAGLVKQASMFSLRQSLNNGDTNLDDLCVRSQHFQEALQQLRPSVNEQDRKIYDKLRLKYAAPRVPTLNDK
As for B3, the binding entry in experiment [1] and in experiment [2] was “binds” in each case.

B4: sle (protein, UniProt Q8INM3 1-1420)
chain: MVVTRARTRRLSLLETDSRPSTPQLDTVAELGTASPRATRRTRLNSSTLDVRTPTRTRRASLARGETPEPTTPSSVKRTARTPAKNTRSVRQQLTLTEEPEENEVKQEKPSPSPSPVPKEGKGKAQRKPSVSPSPGRTLTPNQQSDEKRVTRSMSQTPPMPTRSSSNTPRDLNDSPKVEQKAKPNIKTTPKVAVRLEKLSMDKFSGKKMEKAKPLIVPDELKDNGVVEEQNKSITEAHSQAPETHESAQPDKDAGKQSFLKSFTTLSKIQGSSKALHPDESADTITKITPTSTSKKIEENMDDVFETLRVESPKVERKIETLQKVHTVGTPEIKEKDEPVGVDNEIKTKTETPQKIEPPIIESKVETQQLIDHPQIEKKRDTPQNVSTVDLMDTSPEKDESMEDQEFLDAEDSIVQLEPQTDEPVEKPKELEFVDLDDDEPVFPSEAPKYVEDSKEVHPDDSMDDDKQNKIDVTEVIHLPSIRARAVRSPAVEQKKSVDFNNDTDDLEVEKKRFPKTPGREKVPVCRILTPKPETPLKLALQKGRNSSTPILKDQERGLSNSTEELHPAPPQIDAIKPFDELESKNAKDEMVEQSPMSKQKAENKILARLESFEEDVEDHGNEEENEEEHEEDKSISEFVDLEAEDAGKDYMSGDSMDSSLRREMEENEIPIDGESVGSKDTEESTPEESDGDDSFIVSDNEDEEDLGQLCYSSGEDEIEDAEESEQAERSSVKRRRIIIASPSDEEHDGKVQSNDDSSENKTEKPKNQSNCSSNASKLSEAAQLLNVSEEKSSISETELERSRQVALNELNKSERFNKTETQLDISVMEVDSSDHDEEEKTEKVGAKNNRSLYEIVDSDDGEEQDQDQSDADKPAESENHSEIKKSTSFMDQMSGAKGNKSVYEIMDSYETEDPKEAGKNEESDKDKPAENGKSDKDKQAETEMSDEDKPSEIKSPSTIKKSIISTADEEALLAELASSDLSHLEKMFNPLQKSRRQSLHVPSPELAAKNPKLRRRSERVEVGNDFCPSQSFVDMVAEKKRQKNKRKRLSKSLSGAPEDLEEMEIKHERKRLKSSHGASTDSMEEDNENETMTVAEEHHSDGEVSNGEVPIEEKPTTSSEKPSASELPEEEETVAVEELLMEKPKTCDSPRSEERPTEIVTSKPKGMAPVKVEKTAEYYLAYCHNLLEAANEAKLKEKKEHLASGAKQKKPKRIAAQAPSKLLGTIGSESETNTAKSSKQPPALKKDVKRLQAARQAVSHAVNLLAPPKATEAEPRTLSRKLSPQPPVVDKKSAKQKKGKKKQKPQEASPLKSSDEENHGHRIRTNAGYVTVVDEPPTKVPKIELIKTSSGMVRVEPCTPKQKYFRELPPTPKMHGFREEPGPSGMSRKRAKHAAPKVEHNSAKQAALRFKEQIFARRS
For B4, the binding result in experiment [1] and in experiment [2] was “binds” each time.
